These results are taken from paper PMC9696974 (Pharmaceutics, 2022).

Molecules are shown by their SMILES.

Format in all cases: cell-based, human
The subject of data set [1] is lysosomes (LAMP1) in A549 cells. The data set is described as follows: Colocalisation with LAMP1 (lysosomes), confocal microscopy. As to conditions: A549, 10 µM, 90 min at 37 °C, fixed with PFA.
The test system of data set [2] is Golgi apparatus (GM130) in A549 cells. The data set is described as follows: Colocalisation with GM130 (Golgi), confocal microscopy. As to conditions: A549, 10 µM, 90 min at 37 °C, fixed with PFA.
The test system of data set [3] is mitochondria in A549 cells. The data set is described as follows: Colocalisation with MitoTracker Deep Red (mitochondria). The conditions noted are these: A549, 10 µM, 90 min at 37 °C, live cells.

With `C[n+]1ccc(-c2cc3ccc4cccc5ccc(c2)c3c45)cc1` [1M, 2-para-N-methylpyridinium pyrene], the “Pearson's coefficient, colocalisation with lysosomes (LAMP1)” value in data set [1] was 0.46. The “Pearson's coefficient, colocalisation with Golgi (GM130)” value in data set [2] was 0.27. The “Pearson's coefficient, colocalisation with mitochondria (MitoTracker Deep Red)” value in data set [3] is 0.628.
Take `C[n+]1ccc(-c2cc3ccc4cc(-c5cc[n+](C)cc5)cc5ccc(c2)c3c45)cc1` [2M]: the “Pearson's coefficient, colocalisation with lysosomes (LAMP1)” value in data set [1] came to 0.404. In addition, in data set [2], the “Pearson's coefficient, colocalisation with Golgi (GM130)” value was found to be 0.165. Further, the “Pearson's coefficient, colocalisation with mitochondria (MitoTracker Deep Red)” value in data set [3] is 0.206.
The like results for `c1cc2ccc3cc(-c4ccncc4)cc4ccc(c1)c2c34` [compound 1] were, in that order, 0.468, 0.294 and 0.356.
